Measurements taken from publication PMC10850974.
Results are given in words; binding and its absence hold for the method and conditions named. Binding seen in cells or lysates may run through a third protein. Some results given as binding are weak or reduced against the parent protein; the word gives no strength. Each block holds one molecule with its values, some of them ahead of it.

The chains behind the UniProt entries cited, without tags or fusion partners. Residues count along the entry.
UniProt P15208, residues 753-1372: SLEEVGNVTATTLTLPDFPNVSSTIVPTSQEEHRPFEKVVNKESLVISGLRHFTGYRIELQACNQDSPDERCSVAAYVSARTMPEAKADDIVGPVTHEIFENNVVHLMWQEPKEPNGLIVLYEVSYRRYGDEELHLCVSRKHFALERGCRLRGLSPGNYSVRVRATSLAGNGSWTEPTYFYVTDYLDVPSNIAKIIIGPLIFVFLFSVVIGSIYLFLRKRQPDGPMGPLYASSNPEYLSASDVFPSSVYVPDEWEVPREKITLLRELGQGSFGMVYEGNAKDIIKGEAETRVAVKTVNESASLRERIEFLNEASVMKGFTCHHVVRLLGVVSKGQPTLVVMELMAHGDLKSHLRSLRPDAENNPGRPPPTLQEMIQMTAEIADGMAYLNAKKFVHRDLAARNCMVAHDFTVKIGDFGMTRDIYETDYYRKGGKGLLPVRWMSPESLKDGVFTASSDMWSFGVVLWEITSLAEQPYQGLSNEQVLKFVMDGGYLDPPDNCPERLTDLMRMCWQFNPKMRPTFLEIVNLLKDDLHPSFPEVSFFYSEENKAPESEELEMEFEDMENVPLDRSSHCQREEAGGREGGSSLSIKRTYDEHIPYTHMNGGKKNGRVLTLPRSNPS

What was measured:
[1] = biological target: T1, protein-tyrosine phosphatase 1B (mouse (endogenous in mouse skeletal muscle and C2C12 myotubes)) (UniProt P35821); assay: co-IP; differentiated C2C12 myotube lysates in nondenaturing lysis buffer (20 mM Tris-HCl pH8.0, 137 mM NaCl, 1% Nonidet P-40, 2 mM EDTA); IP with antibody against PTP1B, Western blot for β5 and IRβ; cells treated with β5 blocking (5 μg/ml) or isotype control antibody, or rMFGE8 (10 μg/ml) or BSA, with and without insulin (5 and 30 min)
T1 sequence: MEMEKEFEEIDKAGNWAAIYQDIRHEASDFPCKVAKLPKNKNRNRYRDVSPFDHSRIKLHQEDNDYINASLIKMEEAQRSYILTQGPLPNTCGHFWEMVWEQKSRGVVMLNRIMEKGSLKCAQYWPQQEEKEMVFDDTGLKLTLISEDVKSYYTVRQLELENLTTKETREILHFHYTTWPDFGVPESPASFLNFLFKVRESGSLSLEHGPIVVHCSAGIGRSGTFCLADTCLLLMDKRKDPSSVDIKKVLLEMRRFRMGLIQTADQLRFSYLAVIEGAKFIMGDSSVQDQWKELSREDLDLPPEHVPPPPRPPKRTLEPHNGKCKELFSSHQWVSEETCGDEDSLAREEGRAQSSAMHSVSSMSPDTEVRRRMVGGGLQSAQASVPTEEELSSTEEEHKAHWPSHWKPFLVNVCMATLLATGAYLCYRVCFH

[2] = biological target: T1, protein-tyrosine phosphatase 1B (mouse (endogenous in mouse skeletal muscle and C2C12 myotubes)); assay: co-IP; hind leg skeletal muscle lysates of WT mice in nondenaturing lysis buffer (20 mM Tris-HCl pH8.0, 137 mM NaCl, 1% Nonidet P-40, 2 mM EDTA); IP overnight with antibody against PTP1B or β5 integrin, protein G Dyna beads, Western blot for IRβ, β5, PTP1B; mice treated with or without IP insulin (1 U/kg, 60 min) after β5 blocking or isotype control antibody; also mice fasted 16 h or refed 1 h
[3] = biological target: T2, β5 integrin (mouse (endogenous in mouse skeletal muscle and C2C12 myotubes)) (UniProt O70309); assay: as above
T2 sequence: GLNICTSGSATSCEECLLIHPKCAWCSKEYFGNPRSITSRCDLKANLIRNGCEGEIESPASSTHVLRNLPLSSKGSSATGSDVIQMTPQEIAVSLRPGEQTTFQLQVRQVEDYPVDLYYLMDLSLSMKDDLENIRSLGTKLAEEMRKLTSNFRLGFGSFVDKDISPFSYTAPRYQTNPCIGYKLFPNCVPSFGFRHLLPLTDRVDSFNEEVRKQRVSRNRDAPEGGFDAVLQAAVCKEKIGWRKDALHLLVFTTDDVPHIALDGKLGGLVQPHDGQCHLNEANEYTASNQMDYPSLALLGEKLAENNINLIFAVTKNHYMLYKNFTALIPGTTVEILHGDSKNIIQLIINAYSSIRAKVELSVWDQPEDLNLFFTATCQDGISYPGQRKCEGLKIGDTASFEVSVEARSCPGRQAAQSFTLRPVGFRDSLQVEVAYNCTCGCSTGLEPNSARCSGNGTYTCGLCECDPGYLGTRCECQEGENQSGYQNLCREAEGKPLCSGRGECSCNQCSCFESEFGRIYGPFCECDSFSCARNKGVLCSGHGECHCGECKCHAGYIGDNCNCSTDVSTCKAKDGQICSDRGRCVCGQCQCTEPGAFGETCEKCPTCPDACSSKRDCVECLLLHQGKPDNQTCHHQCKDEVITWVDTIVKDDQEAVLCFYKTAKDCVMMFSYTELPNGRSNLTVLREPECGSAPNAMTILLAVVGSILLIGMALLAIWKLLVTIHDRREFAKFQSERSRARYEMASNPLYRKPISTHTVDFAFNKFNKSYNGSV

binding [1]: binds
binding [2]: binds
binding [3]: binds
Molecule: insulin receptor β subunit (from UniProt P15208 753-1372)

binding [1]: binds
binding [2]: binds
B1: β5 integrin (receptor, UniProt O70309 24-798)
chain: T2 sequence

binding [3]: binds
B2: protein-tyrosine phosphatase 1B (enzyme, UniProt P35821 1-432)
chain: T1 sequence
